Patent publication US7919508B2, “3-piperidinylisochroman-5-ols as dopamine agonists” (Aventis Pharmaceuticals Inc., priority 2004, dated 2011)
Like-named read-outs stand apart in the source and are kept apart here. The structures given here were assigned with low confidence; some may be wrong.

Sequences of proteins named here, by UniProt entry; tags and fusion partners are left off. A change or cut given only in a name is not applied to a line headed by its entry.
UniProt P21728, whole entry: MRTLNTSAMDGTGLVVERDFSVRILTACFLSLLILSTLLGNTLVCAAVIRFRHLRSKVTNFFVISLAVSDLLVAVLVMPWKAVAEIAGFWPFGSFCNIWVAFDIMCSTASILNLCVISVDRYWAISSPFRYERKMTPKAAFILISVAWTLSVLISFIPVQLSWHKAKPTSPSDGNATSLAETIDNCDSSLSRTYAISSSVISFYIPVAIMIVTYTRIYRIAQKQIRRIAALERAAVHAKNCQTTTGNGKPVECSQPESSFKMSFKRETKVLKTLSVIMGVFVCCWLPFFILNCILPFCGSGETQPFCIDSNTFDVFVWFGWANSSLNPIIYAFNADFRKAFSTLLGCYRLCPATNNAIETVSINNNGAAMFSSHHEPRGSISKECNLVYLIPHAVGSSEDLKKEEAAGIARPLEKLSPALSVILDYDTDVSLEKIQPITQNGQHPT
UniProt P14416, whole entry: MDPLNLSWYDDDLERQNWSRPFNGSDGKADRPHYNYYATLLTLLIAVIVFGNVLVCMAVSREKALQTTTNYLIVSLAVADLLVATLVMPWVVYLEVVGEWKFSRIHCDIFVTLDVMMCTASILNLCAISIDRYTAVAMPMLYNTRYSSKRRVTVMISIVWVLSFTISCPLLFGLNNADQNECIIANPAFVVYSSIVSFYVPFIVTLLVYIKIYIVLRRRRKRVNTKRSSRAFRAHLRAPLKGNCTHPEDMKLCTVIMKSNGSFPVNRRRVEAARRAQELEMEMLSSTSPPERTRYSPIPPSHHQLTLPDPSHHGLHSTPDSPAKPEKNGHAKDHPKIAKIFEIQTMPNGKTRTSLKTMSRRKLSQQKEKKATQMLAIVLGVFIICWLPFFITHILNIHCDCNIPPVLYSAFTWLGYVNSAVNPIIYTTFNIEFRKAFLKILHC

Experiments:
[1] = biological target: D1 receptor (Homo sapiens, UniProt P21728); test: D1 Activation Adenylyl Cyclase Assay (cAMP FlashPlate, D1 transfected CHO cell line); type: cell-based; conditions: tested form: HCl; for EC50: read-out: D1 EC50
Protocol: D1 Activation Adenylyl Cyclase Assay
Purpose: To measure D1-agonist activity compounds using an Adenylyl Cyclase Activation Flash Plate Assay from NEN.
Buffers: Activation and Detection buffers are provided from NEN: Catalog # SMP004A.
Maintenance of D1 transfected CHO cell line: • 1. Cells are grown in a 150 cc flask in an incubator at 37° C. with 5% CO2 for 2-3 days (4 maximum) until confluent. • 2. Aspirate off old media (Cells adhere to the plastic flask), wash 2× with sterile PBS. • 3. Add ˜5 mL of Trypsin EDTA (enough to cover bottom of the flask) for 5 min. at RT. • 4. Stop digestion with 15 mL of Media (Ham's F12 plus 10% FBS, 1% P/S, 400 μg/mL G418). • Bang flask on counter to release them from the flask. • 5. Add 2 mL of this to 30 mL of Media in a fresh flask. Return to incubator. Preparation of Cells for Assay: • 1. Loosen the cells with 5 mL Vercine (EDTA)/flask for 10 minutes in incubator. • 2. Add 20 mL of Serum-free media/flask. Transfer to 50-mL Falcon tube. • 3. Spin down cells at 1000 RPM for 5 minutes at 4° C. • 4. Aspirate off old media and resuspend in 5 mL of Serum-free media/plate to be done. • 5. Dilute 10 μL 1/10 in 90 μL Trypan Blue solution and count with a hemocytometer. • Count (live cells only) all four areas and average them. • Count X 10^5 equals cells/mL (including accounting for dilution in Trypan). • 6. Dilute to 50,000 cells/50 μL (1,000,000 cells/mL) in Serum-free media. • 7. Put 50 μL/well in Rows 3-12 of a cAMP FlashPlate. • 8. Put in incubator at 37° C. for 2-4 hours, to allow cells to recover and attach. Adenylyl Cyclase Activation Assay: • 1. Prepare the cAMP standards: • Add 130 μL/well of stimulation buffer to each row of a separate 96-well “standard” plate, 2 columns/plate. • Dilute stock cAMP standard 1/5 with stimulation buffer (final concentration is 1000 pmol/mL). Add 130 μL of this to row A. • Make 1/2 serial dilutions by adding 130 μL from each well to the next (A-G), mixing between each. • Final concentrations are: • A: 500, B: 250, C: 125, D: 62.5, E: 31.25, F: 15.6, G: 7.8, H: 0 pmol/mL. • Place 100 μL from each row from 2 columns of the standard plate into columns 1 and 2 of each “reaction” plate. • 2. Prepare the negative and positive control in the “reaction” plate: • Column 3, rows A-D, add 100 μL stimulation buffer (negative control). • Column 3, rows E-H, add 90 μL of stimulation buffer plus 10 μL of 200 μM APO (positive control, […]). (10 μL 10 mM APO, plus 490 μL stim. buffer=1/50 dilution.) • 3. […]

[2] = biological target: human dopamine D2Long (D2L) receptors (Homo sapiens, UniProt P14416); conditions: read-out: D2 affinity Ki
[3] = biological target: human dopamine D1 receptor (Homo sapiens, UniProt P21728); test: [3H]-SCH-23390 binding to cloned human dopamine D1 receptors (CHO cell membranes); conditions: read-out: D1 affinity Ki
Protocol: [^3H]-SCH-23390 Binding to Cloned Human Dopamine D1 Receptors
Determination of relative binding affinity of potential neuropsychiatric and other agents for the human dopamine D1 receptor.
The human D, cDNA was obtained from the laboratory of Dr. Marc Caron in the vector pCMV5. A 1.4 Kb Hind III to Xho I fragment was subcloned into the vector pMMLV. The plasmid pHD1MMLV was then sequenced completely. Transient transfections in COS-7 cells were performed and D1 specific binding was obtained. The construct pHD1MMLV was then transfected stably into CHO cells and 72 G418-resistant clones were isolated. High expressors were identified by mRNA dot blot analysis. Six high expressors were further characterized by binding and then clone CHO-D1M#9 was chosen for detailed pharmacological characterization. This clone was then grown in suspension culture for the purpose of obtaining enough protein to accommodate several months of screening.
B. Cell Culture Conditions
• 1. […] Cells are transferred to suspension culture when at least […] are available (this allows for 300,000 cells/ml in a 50 ml spinner flask; this is the ideal suspension density). Cells are removed from flasks with trypsin, spun down at 1000×G and resuspended the pellet in fresh medium: • 50% CHO-SFM-II+50% Ham's F12 w/10% FBS (final FBS conc. 5%)+400 μg/ml G418+1% P/S. • 3. After the transfer to suspension culture, growth is monitored and cell viability is assessed using trypan blue exclusion. Total and viable cell count on 5 sectors of the hemocytometer are recorded. When the viable cell density reaches 600,000 cell/ml, the volume is doubled. • 4. […]
The membrane suspension is diluted in water and samples (10, 50 and 100 μl; q.s. to 100 μl with water) are diluted with 100 μl of 1% SDS. […] OD readings that fall between 0.1-0.5 (mid-range of standard curve) should typically be used for calculations. Protein concentrations are calculated from a standard curve using bovine serum albumin as standard by linear regression and interpolation. […]

**Q.** For `C=CCN(CC=C)C(=O)N1CCC([C@@H]2Cc3c(ccc(C)c3O)[C@H](CN)O2)CC1`, which EC50 [1] is on record?
**A.** 9 nM

**Q.** What about the “D1 max Ki” value [1] of the same molecule?
**A.** 32 nM

**Q.** What about the Ki ([2]; tested form: HCl) of the same molecule?
**A.** ≥ 100000 nM

**Q.** And the Ki ([3]; tested form: HCl)?
**A.** 125 nM

**Q.** How did the EC50 [1] turn out when `Cc1ccc2c(c1O)C[C@@H](C1CCN(S(=O)(=O)CC(c3ccccc3)c3ccccc3)CC1)O[C@H]2CN` was run?
**A.** 40 nM

**Q.** What about the “D1 max Ki” value [1] of the same molecule?
**A.** 50 nM

**Q.** What about the Ki ([2]; tested form: HCl) of the same molecule?
**A.** 1.85 nM

**Q.** What about the Ki ([3]; tested form: HCl) of the same molecule?
**A.** 3.6 nM

**Q.** For `Cc1ccc2c(c1O)C[C@@H](C1CCN(C(C)C)CC1)O[C@H]2CN`, which Ki ([2]; tested form: 2HCl) is on record?
**A.** ≥ 10000 nM

**Q.** What about the Ki ([3]; tested form: 2HCl) of the same molecule?
**A.** 289 nM
